test: general procedure: solution-phase peptide synthesis; active ester (11) with (CH3CH2)3N in DMSO; settings: conjugation step, ammonium salt

| Substance | conjugation yield |
| --- | --- |
| {6′SLN—S1—S2-[Gly2(MCMGly)]4Gly2-NHCH2}3CCH3 | 86% |
| {6′SLN—S1—S2-[Gly2(MCMGly)]5Gly2-NHCH2}3CCH32 | 91% |
| {6′SLN—S1—S2-[Gly2(MCMGly)]3Gly2-NHCH2}3CCH3 | 83% |

same assay, conditions: coupling step, CF3COOH salt (deprotected amines)

| Substance | step yield |
| --- | --- |
| {Boc-[Gly2(MCMGly)]4Gly2-NHCH2}4C | 96% |
| {Boc-[Gly2(MCMGly)]Gly2-NHCH2}4C | 68% |
| {Boc-[Gly2(MCMGly)]2Gly2-NHCH2}4C | 71% |
| {Boc-[Gly2(MCMGly)]5Gly2-NHCH2}3CCH3 | 98% |
| {Boc-[Gly2(MCMGly)]2Gly2-NHCH2}3CCH3 | 94% |
| {Boc-[Gly2(MCMGly)]Gly2-NHCH2}3CCH3 | 91.5% |
| {Boc-[Gly2(MCMGly)]4Gly2-NHCH2}3CCH3 | 97% |
| {Boc-[Gly2(MCMGly)]3Gly2-NHCH2}3CCH3 | 97.5% |
| {Boc-[Gly2(MCMGly)]5Gly2-NHCH2}4C | 95% |

same assay, conditions: late stage modification step, CF3COOH salt

| Substance | step yield |
| --- | --- |
| {CF3COOH.H-[Gly2(MCMGly)]4Gly2-NHCH2}3CCH3 | 97% |
| {CF3COOH.H-[Gly2(MCMGly)]5Gly2-NHCH2}3CCH3 | 94% |
| {CF3COOH-H-[Gly2 (MCMGly)]2Gly2-NHCH2}4C | 98% |
| {CF3COOH.H-[Gly2(MCMGly)]Gly2-NHCH2}3CCH3 | 98% |
| {CF3COOH.H-[Gly2(MCMGly)]3Gly2-NHCH2}3CCH3 | 96% |
| {CF3COOH.H-[Gly2(MCMGly)]5Gly2-NHCH2}4C | 99% |
| {CF3COOH.H-[Gly2(MCMGly)]3Gly2-NHCH2}4C | 99% |
| {CF3COOH.H-[Gly2(MCMGly)]Gly2-NHCH2}4C | 99% |
| {CF3COOH.H-[Gly2(MCMGly)]2Gly2-NHCH2}3CCH3 | 97% |
| {CF3COOH.H-[Gly2(MCMGly)]4Gly2-NHCH2}4C | 96% |
